Results deposited as PubChem BioAssay AID493246 (Drosophila RNAi Screening Center, 2011).

Purpose: 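Genome-wide search for dsRNAs that reduce cell number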 (primary screen)
System: Drosophila Kc and S2R+ cells
Knock-down reagent: long dsRNA against Drosophila genes
Measurement: 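Raw, unnormalised count of remaining cells in each well; per-plate z-scores of cell number underlie the calls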
Scale: Kc cell number and S2R+ cell number: higher = more cells remaining
Hit rule: 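Active when the per-plate z-score of cell number is 3 or more in the direction of fewer cells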
In all, the deposit lists about 21,000 reagents; below is an unselected part of those with a known target gene and a result. Over the whole deposit, 429 (2%) are marked active. 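Values are raw and not normalised between plates; calls rest on per-plate z-scores that were not deposited.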 The record does not give: the amount of reagent, the time to read-out.

TwdlL [DRSC16042] — Kc cell number, rep 1 = 5.36e5; S2R+ cell number, rep 1 = 7.48e5; call = inactive
CG12934 [DRSC06247] — Kc cell number, rep 1 = 1.45e6; Kc cell number, rep 2 = 1.51e6; S2R+ cell number, rep 1 = 1.14e6; S2R+ cell number, rep 2 = 1.27e6; call = inactive
Ugt35C1 [DRSC16080] — Kc cell number, rep 1 = 1.79e6; Kc cell number, rep 2 = 1.93e6; S2R+ cell number, rep 1 = 1.42e6; S2R+ cell number, rep 2 = 1.57e6; call = inactive
tara [DRSC17076] — Kc cell number, rep 1 = 1.25e6; Kc cell number, rep 2 = 1.21e6; S2R+ cell number, rep 1 = 1.17e6; S2R+ cell number, rep 2 = 1.28e6; call = inactive
Ctr1A [DRSC18336] — Kc cell number, rep 1 = 1.32e6; Kc cell number, rep 2 = 1.37e6; S2R+ cell number, rep 1 = 8.85e5; S2R+ cell number, rep 2 = 9.97e5; call = inactive
LUBEL [DRSC02141] — Kc cell number, rep 1 = 1.53e6; Kc cell number, rep 2 = 1.47e6; S2R+ cell number, rep 1 = 1.08e6; S2R+ cell number, rep 2 = 1.17e6; call = inactive
CG13679 [DRSC10037] — Kc cell number, rep 1 = 1.47e6; Kc cell number, rep 2 = 1.62e6; S2R+ cell number, rep 1 = 1.02e6; S2R+ cell number, rep 2 = 1.18e6; call = inactive
vtd [DRSC20839] — Kc cell number, rep 1 = 1.43e6; Kc cell number, rep 2 = 1.39e6; S2R+ cell number, rep 1 = 1.02e6; S2R+ cell number, rep 2 = 1.17e6; call = inactive
FMRFa [DRSC07428] — Kc cell number, rep 1 = 1.42e6; Kc cell number, rep 2 = 1.57e6; S2R+ cell number, rep 1 = 1.24e6; S2R+ cell number, rep 2 = 1.31e6; call = inactive
dare [DRSC07602] — Kc cell number, rep 1 = 1.26e6; Kc cell number, rep 2 = 1.36e6; S2R+ cell number, rep 1 = 1.10e6; S2R+ cell number, rep 2 = 1.06e6; call = inactive
GPHR [DRSC07075] — Kc cell number, rep 1 = 1.58e6; Kc cell number, rep 2 = 1.61e6; S2R+ cell number, rep 1 = 1.35e6; S2R+ cell number, rep 2 = 1.46e6; call = inactive
bs [DRSC04676] — Kc cell number, rep 1 = 5.81e5; Kc cell number, rep 2 = 5.71e5; S2R+ cell number, rep 1 = 4.59e5; S2R+ cell number, rep 2 = 5.44e5; call = active
CG31949 [DRSC00110] — Kc cell number, rep 1 = 1.49e6; Kc cell number, rep 2 = 1.53e6; S2R+ cell number, rep 1 = 9.87e5; S2R+ cell number, rep 2 = 1.14e6; call = inactive

The list goes on, starting with the last 2 of the part before.
bs [DRSC04676] — Kc cell number, rep 1 = 5.81e5; Kc cell number, rep 2 = 5.71e5; S2R+ cell number, rep 1 = 4.59e5; S2R+ cell number, rep 2 = 5.44e5; call = active
CG31949 [DRSC00110] — Kc cell number, rep 1 = 1.49e6; Kc cell number, rep 2 = 1.53e6; S2R+ cell number, rep 1 = 9.87e5; S2R+ cell number, rep 2 = 1.14e6; call = inactive
Blos1 [DRSC05970] — Kc cell number, rep 1 = 1.54e6; Kc cell number, rep 2 = 1.67e6; S2R+ cell number, rep 1 = 1.37e6; S2R+ cell number, rep 2 = 1.53e6; call = inactive
CCT4 [DRSC02865] — Kc cell number, rep 1 = 1.55e6; Kc cell number, rep 2 = 1.59e6; S2R+ cell number, rep 1 = 1.31e6; S2R+ cell number, rep 2 = 1.45e6; call = inactive
RpL35 [DRSC18347] — Kc cell number, rep 1 = 1.21e6; Kc cell number, rep 2 = 1.20e6; S2R+ cell number, rep 1 = 6.18e5; S2R+ cell number, rep 2 = 7.22e5; call = inactive
Vps2 [DRSC14886] — Kc cell number, rep 1 = 4.68e5; S2R+ cell number, rep 1 = 7.07e5; call = inactive
CG9316 [DRSC03195] — Kc cell number, rep 1 = 1.45e6; Kc cell number, rep 2 = 1.56e6; S2R+ cell number, rep 1 = 1.25e6; S2R+ cell number, rep 2 = 3.67e5; call = inactive
CG34273 [DRSC13041] — Kc cell number, rep 1 = 1.41e6; Kc cell number, rep 2 = 1.62e6; S2R+ cell number, rep 1 = 9.99e5; S2R+ cell number, rep 2 = 1.17e6; call = inactive
CG34330 [DRSC20043] — Kc cell number, rep 1 = 1.57e6; Kc cell number, rep 2 = 1.58e6; S2R+ cell number, rep 1 = 1.13e6; S2R+ cell number, rep 2 = 1.23e6; call = inactive
CG30375 [DRSC06834] — Kc cell number, rep 1 = 1.59e6; Kc cell number, rep 2 = 1.66e6; S2R+ cell number, rep 1 = 1.23e6; S2R+ cell number, rep 2 = 1.38e6; call = inactive
